One experiment deals with Myc-DSP (mouse) (UniProt P97399). Kind of experiment: co-IP; HEK-293 cells transfected with Myc-Ocln and Flag-DSP or Myc-DSP and Flag-Ocln (and fragments), 48 h; lysis in 50 mM Tris-HCl pH 7.4, 150 mM NaCl, 1 mM EDTA, 1% Triton X-100; precipitated with Myc antibody; blots with anti-Myc, anti-DSP or anti-Ocln.
Experiment [1] addresses T1, GST-DSP fusion protein (recombinant dentin sialoprotein 1–458) (mouse) (UniProt P97399).
T1 sequence: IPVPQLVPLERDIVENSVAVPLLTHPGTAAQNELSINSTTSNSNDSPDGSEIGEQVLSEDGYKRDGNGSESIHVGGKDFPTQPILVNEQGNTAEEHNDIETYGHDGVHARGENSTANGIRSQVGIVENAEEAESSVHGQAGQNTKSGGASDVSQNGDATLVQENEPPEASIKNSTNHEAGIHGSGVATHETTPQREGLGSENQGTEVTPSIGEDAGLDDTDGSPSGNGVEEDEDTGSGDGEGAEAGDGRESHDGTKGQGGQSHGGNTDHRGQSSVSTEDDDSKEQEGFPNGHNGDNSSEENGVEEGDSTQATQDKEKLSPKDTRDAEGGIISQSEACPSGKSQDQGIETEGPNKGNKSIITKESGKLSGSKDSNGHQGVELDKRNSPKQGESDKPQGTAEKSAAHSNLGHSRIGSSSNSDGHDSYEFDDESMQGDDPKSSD
The experiment can be described thus: pull-down; GST-DSP fusion protein incubated with 1 ml lysate of mouse odontoblast-like cells (MO-6G3) in 50 mM Tris-HCl pH 7.4, 150 mM NaCl, Triton X100 overnight at 4 °C; glutathione agarose beads; eluted with reduced glutathione; Western blots with antibodies to 110 candidates; only the target purified. For orientation: Immunoblotting shows a protein as a band on a membrane.

Protein sequences, listed by entry. Tags and fused reporters are not part of them.
UniProt Q61146: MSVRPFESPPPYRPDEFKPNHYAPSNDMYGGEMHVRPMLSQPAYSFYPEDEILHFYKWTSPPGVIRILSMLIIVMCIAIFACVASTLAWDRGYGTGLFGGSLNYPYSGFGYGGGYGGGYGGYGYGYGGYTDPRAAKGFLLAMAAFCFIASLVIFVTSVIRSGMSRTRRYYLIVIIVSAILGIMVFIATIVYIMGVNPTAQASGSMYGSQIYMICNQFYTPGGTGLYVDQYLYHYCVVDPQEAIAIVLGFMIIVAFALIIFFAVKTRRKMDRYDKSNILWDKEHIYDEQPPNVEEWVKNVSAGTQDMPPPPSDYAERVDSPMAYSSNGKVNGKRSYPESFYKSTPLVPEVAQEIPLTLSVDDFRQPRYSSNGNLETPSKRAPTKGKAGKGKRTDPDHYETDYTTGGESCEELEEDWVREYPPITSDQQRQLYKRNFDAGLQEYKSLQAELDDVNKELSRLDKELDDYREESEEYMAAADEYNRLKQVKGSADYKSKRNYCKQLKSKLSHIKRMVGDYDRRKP

Another experiment concerns the target Myc-Ocln (mouse) (UniProt Q61146). The experiment can be described thus: co-IP; HEK-293 cells transfected with Myc-Ocln and Flag-DSP or Myc-DSP and Flag-Ocln (and fragments), 48 h; lysis in 50 mM Tris-HCl pH 7.4, 150 mM NaCl, 1 mM EDTA, 1% Triton X-100; precipitated with Myc antibody; blots with anti-Myc, anti-DSP or anti-Ocln.

No constants are given. Whether binding was seen depends on the method and setting. In cells and extracts the contact can be indirect. Binding can be weak; no strength is given. For part of these data: Where a sequence is shown, tags or fusion partners need not be part of it.

As to “Flag-Ocln (from UniProt Q61146 1-521) (receptor)”, the binding result with Myc-DSP (mouse) is “binds”.

collagen IV: the binding result in experiment [1] was “binds”. In the case of Flag-DSP (from UniProt P97399), the binding result in the experiment with Myc-Ocln (mouse) was “binds”.

Values taken from PMC5428264, “Dentin sialoprotein facilitates dental mesenchymal cell differentiation and dentin formation” (Scientific Reports, 2017).
